Laboratory results taken from publication PMC4455283, “Crystal structure of TRIM20 C-terminal coiled-coil/B30.2 fragment: implications for the recognition of higher order oligomers” (Scientific Reports, 2015).
Results are given in words; binding and its absence hold for the method and conditions named. For some of these results: Binding can be weak; no strength is given. For some of these results: In cells and extracts the contact can be indirect. Blank lines part the entries; values can stand above or below the binder they belong to.

The chains behind the UniProt entries cited, without tags or fusion partners. Where a name states a change or a piece, a line headed by the entry shows the natural chain unless it says otherwise.
UniProt P01584: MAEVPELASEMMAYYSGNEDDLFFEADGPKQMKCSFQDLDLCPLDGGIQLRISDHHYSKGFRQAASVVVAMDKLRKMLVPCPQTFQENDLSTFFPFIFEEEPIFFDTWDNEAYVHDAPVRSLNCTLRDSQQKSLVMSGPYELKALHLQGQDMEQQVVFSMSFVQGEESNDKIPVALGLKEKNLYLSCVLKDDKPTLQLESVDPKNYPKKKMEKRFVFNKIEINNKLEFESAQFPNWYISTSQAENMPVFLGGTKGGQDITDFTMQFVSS

Legend:
pro-interleukin-1β [1] = target: T1, pro-interleukin-1β (UniProt P01584 1-269); experiment: co-IP; 10 μM TRIM20 construct incubated with 10 μg purified FLAG-tagged pro-IL-1β in 100 μl; precipitated with ANTI-FLAG M2 Affinity Gel; SDS-PAGE; both purified
T1 construct: pro-interleukin-1β (uncleaved precursor of IL-1β); Printed mass 31.9 kDa; The FLAG tag is named for the co-immunoprecipitation; also called pro-IL-1β; FLAG-tagged pro-IL-1β; source: purified

pro-interleukin-1β [2] = target: T1, pro-interleukin-1β; experiment: SEC; TRIM20Δ413 and pro-IL-1β incubated at 4 °C before SEC; both purified
pro-interleukin-1β [3] = target: T1, pro-interleukin-1β; experiment: SEC; TRIM20Δ413 and pro-IL-1β incubated at 25 °C (1 h or longer) before SEC; co-elution verified by SDS-PAGE; both purified

binding (pro-interleukin-1β [1]): no binding (tested: 10 μM)
B1: isolated TRIM20 B30.2 domain (domain or fragment, UniProt O15553 577-781)
chain: TLRSEMEMFNVPELIGAQAHAVNVILDAETAYPNLIFSDDLKSVRLGNKWERLPDGPQRFDSCIIVLGSPSFLSGRRYWEVEVGDKTAWILGACKTSISRKGNMTLSPENGYWVVIMMKENEYQASSVPPTRLLIKEPPKRVGIFVDYRVGSISFYNVTARSHIYTFASCSFSGPLQPIFSPGTRDGGKNTAPLTICPVGGQGPD

binding (pro-interleukin-1β [3]): binds | binding (pro-interleukin-1β [1]): binds
B2: TRIM20Δ413 (TRIM20 coiled-coil/B30.2 fragment) (domain or fragment, human, UniProt O15553 414-781, looked up)
chain: EVALEHKKKIQKQLEHLKKLRKSGEEQRSYGEEKAVSFLKQTEALKQRVQRKLEQVYYFLEQQEHFFVASLEDVGQMVGQIRKAYDTRVSQDIALLDALIGELEAKECQSEWELLQDIGDILHRAKTVPVPEKWTTPQEIKQKIQLLHQKSEFVEKSTKYFSETLRSEMEMFNVPELIGAQAHAVNVILDAETAYPNLIFSDDLKSVRLGNKWERLPDGPQRFDSCIIVLGSPSFLSGRRYWEVEVGDKTAWILGACKTSISRKGNMTLSPENGYWVVIMMKENEYQASSVPPTRLLIKEPPKRVGIFVDYRVGSISFYNVTARSHIYTFASCSFSGPLQPIFSPGTRDGGKNTAPLTICPVGGQGPD
notes: TRIM20 (pyrin, marenostrin), human, UniProt O15553; construct starting with E414, comprising the CHS (coiled-coil, E414-N586) and B30.2 (E589-G776) domains; Calculated monomer mass printed as 42 737 Da (85.7 kDa dimer); also called CHS-B30.2; TRIM20 C-terminal coiled-coil/B30.2 fragment; source: purified
binding (pro-interleukin-1β [2]): no binding (only after incubation at 4 °C)
